Data as given in PMC8274477.
These are yes or no findings as the source states them, for the method shown. Some entries that bind do so weakly or less than the wild type.

By UniProt entry, the sequences of proteins in these tests, tags left out.
UniProt Q9UHX1: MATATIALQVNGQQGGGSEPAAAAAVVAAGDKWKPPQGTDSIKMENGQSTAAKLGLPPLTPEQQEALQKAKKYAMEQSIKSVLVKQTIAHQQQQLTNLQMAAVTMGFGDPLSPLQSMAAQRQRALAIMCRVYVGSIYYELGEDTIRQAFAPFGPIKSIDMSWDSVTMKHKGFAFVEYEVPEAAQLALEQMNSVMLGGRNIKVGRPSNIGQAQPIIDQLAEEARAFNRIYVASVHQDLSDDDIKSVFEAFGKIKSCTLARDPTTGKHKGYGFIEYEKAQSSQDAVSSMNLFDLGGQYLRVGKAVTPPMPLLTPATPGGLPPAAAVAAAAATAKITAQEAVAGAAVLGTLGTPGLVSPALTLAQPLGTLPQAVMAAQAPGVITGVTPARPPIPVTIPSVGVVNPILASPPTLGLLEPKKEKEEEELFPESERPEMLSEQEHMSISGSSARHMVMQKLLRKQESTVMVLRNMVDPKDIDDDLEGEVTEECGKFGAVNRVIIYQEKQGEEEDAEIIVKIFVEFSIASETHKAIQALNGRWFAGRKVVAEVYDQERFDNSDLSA
UniProt P49848: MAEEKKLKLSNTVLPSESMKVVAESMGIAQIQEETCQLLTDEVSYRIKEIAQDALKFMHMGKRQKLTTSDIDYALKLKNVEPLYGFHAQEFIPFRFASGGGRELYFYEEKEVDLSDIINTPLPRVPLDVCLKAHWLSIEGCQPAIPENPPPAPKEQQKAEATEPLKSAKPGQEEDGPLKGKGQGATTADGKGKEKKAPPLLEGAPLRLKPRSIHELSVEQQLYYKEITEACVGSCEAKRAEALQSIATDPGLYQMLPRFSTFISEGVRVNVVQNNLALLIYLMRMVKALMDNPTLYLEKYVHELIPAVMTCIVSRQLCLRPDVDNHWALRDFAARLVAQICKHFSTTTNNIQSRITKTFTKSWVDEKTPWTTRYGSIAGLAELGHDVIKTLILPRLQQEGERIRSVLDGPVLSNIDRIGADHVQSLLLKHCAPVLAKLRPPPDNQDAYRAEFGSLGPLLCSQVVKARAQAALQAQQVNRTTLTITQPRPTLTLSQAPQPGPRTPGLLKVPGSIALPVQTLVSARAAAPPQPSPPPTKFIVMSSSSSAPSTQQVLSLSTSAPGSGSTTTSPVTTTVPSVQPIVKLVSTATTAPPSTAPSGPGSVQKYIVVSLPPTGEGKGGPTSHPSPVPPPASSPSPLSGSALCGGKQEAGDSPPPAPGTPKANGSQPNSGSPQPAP
UniProt Q8NCL8: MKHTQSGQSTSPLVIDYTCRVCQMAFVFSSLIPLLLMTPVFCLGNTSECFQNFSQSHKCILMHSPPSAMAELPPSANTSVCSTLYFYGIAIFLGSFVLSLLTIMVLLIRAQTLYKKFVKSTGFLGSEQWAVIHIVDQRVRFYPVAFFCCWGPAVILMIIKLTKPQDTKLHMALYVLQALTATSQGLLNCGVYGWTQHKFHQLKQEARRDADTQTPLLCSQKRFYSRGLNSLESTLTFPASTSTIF
UniProt Q15427: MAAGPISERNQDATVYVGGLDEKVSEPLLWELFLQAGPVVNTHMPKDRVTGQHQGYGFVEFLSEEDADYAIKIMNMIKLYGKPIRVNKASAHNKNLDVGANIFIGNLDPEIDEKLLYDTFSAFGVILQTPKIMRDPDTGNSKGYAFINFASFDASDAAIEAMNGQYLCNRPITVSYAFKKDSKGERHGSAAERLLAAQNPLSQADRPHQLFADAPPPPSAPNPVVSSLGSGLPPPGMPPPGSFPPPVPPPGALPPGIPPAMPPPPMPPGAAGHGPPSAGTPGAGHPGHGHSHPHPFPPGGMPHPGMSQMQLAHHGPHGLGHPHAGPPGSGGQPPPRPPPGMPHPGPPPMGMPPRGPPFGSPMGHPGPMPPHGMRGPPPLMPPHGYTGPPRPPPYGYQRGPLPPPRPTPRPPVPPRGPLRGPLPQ
UniProt Q53SZ7: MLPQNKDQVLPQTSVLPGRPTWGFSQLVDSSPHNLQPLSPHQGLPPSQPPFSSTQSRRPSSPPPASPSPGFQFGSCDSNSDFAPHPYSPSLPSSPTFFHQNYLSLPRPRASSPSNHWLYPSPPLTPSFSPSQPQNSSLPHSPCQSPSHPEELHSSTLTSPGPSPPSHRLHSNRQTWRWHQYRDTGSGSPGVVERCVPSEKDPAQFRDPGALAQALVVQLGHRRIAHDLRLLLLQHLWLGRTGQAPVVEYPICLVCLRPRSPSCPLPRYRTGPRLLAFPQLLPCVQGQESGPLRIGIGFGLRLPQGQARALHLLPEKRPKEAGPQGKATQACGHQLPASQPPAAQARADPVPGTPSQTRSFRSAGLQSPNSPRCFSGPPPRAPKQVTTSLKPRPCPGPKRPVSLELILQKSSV
UniProt Q9Y2J4: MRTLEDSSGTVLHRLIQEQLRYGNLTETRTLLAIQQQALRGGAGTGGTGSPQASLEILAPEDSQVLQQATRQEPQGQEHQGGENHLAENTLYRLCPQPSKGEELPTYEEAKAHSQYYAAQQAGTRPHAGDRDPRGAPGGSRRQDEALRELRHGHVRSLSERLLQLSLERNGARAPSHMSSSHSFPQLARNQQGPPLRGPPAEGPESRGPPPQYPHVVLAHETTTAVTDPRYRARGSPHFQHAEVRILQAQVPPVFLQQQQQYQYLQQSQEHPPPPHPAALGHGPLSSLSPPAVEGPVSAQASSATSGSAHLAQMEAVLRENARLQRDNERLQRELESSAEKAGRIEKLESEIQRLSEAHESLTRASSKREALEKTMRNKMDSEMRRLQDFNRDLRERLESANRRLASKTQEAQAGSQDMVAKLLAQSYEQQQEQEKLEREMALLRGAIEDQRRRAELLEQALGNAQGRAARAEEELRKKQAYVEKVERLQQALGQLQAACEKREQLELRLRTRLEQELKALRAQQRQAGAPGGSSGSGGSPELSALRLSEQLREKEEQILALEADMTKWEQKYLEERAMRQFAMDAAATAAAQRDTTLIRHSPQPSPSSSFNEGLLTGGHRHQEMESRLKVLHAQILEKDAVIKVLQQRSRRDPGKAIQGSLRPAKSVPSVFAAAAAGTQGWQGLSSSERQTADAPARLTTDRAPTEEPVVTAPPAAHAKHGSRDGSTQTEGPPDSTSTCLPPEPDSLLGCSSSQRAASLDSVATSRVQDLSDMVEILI
UniProt O95922: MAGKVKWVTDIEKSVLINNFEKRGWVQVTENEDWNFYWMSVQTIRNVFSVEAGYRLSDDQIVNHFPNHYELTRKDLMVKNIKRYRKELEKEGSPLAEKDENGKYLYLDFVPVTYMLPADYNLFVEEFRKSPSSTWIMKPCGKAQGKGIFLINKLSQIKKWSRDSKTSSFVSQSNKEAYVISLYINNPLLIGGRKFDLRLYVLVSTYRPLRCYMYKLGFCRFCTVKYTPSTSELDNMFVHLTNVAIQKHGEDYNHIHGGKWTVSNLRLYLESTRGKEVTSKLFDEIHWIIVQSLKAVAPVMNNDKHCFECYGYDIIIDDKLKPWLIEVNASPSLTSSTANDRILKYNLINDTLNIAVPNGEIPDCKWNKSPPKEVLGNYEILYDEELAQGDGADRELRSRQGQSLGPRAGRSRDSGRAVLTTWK
UniProt P28482: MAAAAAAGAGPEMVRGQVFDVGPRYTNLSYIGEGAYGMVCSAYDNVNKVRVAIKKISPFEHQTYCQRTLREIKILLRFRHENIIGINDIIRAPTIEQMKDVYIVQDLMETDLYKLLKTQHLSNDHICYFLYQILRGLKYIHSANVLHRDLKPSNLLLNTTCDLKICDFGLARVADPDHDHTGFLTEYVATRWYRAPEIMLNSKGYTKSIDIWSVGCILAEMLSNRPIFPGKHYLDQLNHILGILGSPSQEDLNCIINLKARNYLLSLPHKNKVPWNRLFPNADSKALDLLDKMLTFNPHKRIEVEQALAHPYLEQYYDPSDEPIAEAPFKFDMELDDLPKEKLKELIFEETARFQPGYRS
UniProt O43432: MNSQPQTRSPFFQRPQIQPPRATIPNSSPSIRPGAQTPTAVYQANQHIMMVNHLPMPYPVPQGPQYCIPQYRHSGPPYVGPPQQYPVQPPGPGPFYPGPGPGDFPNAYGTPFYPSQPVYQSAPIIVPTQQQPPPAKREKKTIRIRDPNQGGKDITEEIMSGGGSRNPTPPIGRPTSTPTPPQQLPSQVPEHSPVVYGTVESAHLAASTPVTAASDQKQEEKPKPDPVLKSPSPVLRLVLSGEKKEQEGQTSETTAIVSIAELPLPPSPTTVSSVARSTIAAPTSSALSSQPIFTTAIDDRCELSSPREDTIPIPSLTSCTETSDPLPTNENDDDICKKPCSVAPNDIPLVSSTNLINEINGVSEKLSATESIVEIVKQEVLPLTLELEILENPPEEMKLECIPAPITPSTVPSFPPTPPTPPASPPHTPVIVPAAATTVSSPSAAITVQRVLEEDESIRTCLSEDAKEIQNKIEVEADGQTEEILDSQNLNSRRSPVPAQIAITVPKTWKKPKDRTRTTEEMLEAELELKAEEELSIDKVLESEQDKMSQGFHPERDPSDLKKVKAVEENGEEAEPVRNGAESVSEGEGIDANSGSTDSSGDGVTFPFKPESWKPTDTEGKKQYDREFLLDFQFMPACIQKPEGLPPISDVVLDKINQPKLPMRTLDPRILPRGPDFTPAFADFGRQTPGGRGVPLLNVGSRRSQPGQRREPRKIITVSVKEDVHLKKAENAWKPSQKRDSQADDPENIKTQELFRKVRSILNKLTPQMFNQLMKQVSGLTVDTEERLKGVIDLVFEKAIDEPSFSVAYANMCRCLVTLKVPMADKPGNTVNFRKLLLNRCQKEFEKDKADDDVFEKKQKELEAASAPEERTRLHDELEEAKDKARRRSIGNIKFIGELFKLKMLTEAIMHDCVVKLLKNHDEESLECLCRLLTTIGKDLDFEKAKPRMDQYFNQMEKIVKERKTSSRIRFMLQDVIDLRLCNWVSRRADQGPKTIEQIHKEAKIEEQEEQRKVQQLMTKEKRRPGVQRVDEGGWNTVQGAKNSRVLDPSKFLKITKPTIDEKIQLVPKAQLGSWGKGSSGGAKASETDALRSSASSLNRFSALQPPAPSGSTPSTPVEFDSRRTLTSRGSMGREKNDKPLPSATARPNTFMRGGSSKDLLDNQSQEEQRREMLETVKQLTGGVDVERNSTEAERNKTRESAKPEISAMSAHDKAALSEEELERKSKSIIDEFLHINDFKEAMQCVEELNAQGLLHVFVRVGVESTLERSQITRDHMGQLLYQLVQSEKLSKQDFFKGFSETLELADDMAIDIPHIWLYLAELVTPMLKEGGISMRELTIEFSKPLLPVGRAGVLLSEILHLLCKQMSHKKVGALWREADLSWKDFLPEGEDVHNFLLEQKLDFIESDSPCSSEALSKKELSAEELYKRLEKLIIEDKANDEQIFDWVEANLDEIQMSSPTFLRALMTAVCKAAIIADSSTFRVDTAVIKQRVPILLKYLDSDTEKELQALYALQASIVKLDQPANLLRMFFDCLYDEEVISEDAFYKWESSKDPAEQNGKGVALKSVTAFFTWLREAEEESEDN

Assays:
Experiment in all cases: peptide or protein array; HuProt human proteome microarray; 5 ug/5 ml biotin-labelled LUBAC or OTULIN in solution, 1 h at room temperature; Cy5-streptavidin, scanned at 635 nm; BSA as negative control; hits: Z-score >= 3 and I_(Mean_Ratio) >= 1.4; both purified
PUF60 (human) = PUF60 (human) (UniProt Q9UHX1)
TAF6 (human) = TAF6 (human) (UniProt P49848)
TMEM116 (human) = TMEM116 (human) (UniProt Q8NCL8)
EIF4H (human) = EIF4H (human) (UniProt Q15056)
SDS (human) = biological target: T1, SDS (human) (UniProt P20132)
T1 sequence: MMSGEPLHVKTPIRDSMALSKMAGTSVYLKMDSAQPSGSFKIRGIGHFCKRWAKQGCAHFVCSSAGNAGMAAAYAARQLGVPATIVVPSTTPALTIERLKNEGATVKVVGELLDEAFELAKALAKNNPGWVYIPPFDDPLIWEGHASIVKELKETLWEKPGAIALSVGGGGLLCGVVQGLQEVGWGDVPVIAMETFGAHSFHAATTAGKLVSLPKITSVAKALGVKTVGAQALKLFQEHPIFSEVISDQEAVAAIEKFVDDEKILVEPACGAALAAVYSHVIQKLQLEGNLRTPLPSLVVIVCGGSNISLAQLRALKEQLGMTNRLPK

SF3B4 (human) = SF3B4 (human) (UniProt Q15427)
PRR30 (human) = PRR30 (human) (UniProt Q53SZ7)
AMOTL2 (human) = AMOTL2 (human) (UniProt Q9Y2J4)
C9orf9 (human) = biological target: T2, C9orf9 (human) (UniProt Q96E40)
T2 sequence: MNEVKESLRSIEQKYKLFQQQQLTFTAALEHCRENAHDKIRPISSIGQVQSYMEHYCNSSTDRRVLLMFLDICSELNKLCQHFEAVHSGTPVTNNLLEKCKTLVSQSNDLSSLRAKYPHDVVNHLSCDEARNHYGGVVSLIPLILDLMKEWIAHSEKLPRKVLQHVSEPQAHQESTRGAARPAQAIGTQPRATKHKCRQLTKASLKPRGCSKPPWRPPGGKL

TTLL1 (human) = TTLL1 (human) (UniProt O95922)
MAPK1 (human) = MAPK1 (human) (UniProt P28482)
ANXA3 (human) = biological target: T3, ANXA3 (human) (UniProt P12429)
T3 sequence: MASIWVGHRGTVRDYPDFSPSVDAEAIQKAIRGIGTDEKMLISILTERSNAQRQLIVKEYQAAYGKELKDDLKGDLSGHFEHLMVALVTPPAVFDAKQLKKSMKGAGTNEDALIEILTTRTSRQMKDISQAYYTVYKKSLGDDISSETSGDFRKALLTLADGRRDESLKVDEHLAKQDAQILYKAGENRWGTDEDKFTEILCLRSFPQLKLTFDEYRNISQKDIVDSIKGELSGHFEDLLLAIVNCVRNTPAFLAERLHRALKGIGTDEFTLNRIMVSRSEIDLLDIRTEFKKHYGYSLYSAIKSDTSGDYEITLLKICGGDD

EIF4G3 (human) = EIF4G3 (human) (UniProt O43432)

Measured: binding

linear ubiquitin chain assembly complex (LUBAC), purified as HIS-tagged HOIP with the subunit HOIL-1, biotin-labelled (from UniProt Q96EP0 1-1072; Q9BYM8 1-510)
binds: all assays above
